Data taken from patent US20200339690A1.
Results are given in words; binding and its absence hold for the method and conditions named. For part of these data: Binding can be weak; no strength is given. Values belong to the binder of their own block, whether it stands above or below them.

Tests used:
[1] = target: Cyno Monocytes / Cyno Neutrophils (Macaca fascicularis); assay: flow cytometry, cyno whole blood
human LILRB2 (human) [2] = assay: summary of the chimeric antibody screens
[3] = target: Rhesus Monocytes / Rhesus Neutrophils (Macaca mulatta); assay: flow cytometry, rhesus whole blood
[4] = target: Cyno Monocytes / Cyno Neutrophils (Macaca fascicularis); assay: flow cytometry, cyno whole blood, biotinylated mAb
human LILRB2 (human) [5] = assay: description of the treatments in the histoculture example
[6] = target: Rhesus Monocytes / Rhesus Neutrophils (Macaca mulatta); assay: flow cytometry, rhesus whole blood, biotinylated mAb
[7] = target: Cyno Monocytes / Cyno Neutrophils (Macaca fascicularis); assay: flow cytometry, cyno whole blood, biotinylated mAb 25 ug/mL
[8] = target: Rhesus Monocytes / Rhesus Neutrophils (Macaca mulatta); assay: flow cytometry, rhesus whole blood, biotinylated mAb 25 ug/mL
human LILRB2 (human) [9] = assay: BLI ForteBio Octet Red96; antibody on anti-human capture sensor, LILRB2 at 50 nM and 5 nM

binding [1]: no binding (tested: 25 ug/mL) | binding (human LILRB2 (human) [2]): binds | binding [3]: no binding (tested: 25 ug/mL) | binding [4]: no binding (tested: 25 ug/mL) | binding (human LILRB2 (human) [5]): binds | binding [6]: no binding (tested: 25 ug/mL)
B1: J-11 (antibody, human IgG4 S228P, kappa, V domains shown)
VH: QVQLQQSGAELMKPGASVKLSCKATGYILTGYWIEWVKQRPGHGLEWIGEILPGSGSTNYNENFKGKATFTADTSSNTAYMQLSSLTTEDSAIYYCARAVLGYFDYWGQGTTLTVSS
VL: DIVMTQSHKFMSTSVGDRVSITCKASQDVSTAVAWYQQKPGQSPKLLIYWASTRHTGVPDRFTGSGSGTDYTLTISSVQAEDLALYYCHQHYSTYTFGGGTKLEIKR

binding (human LILRB2 (human) [2]): binds | binding (human LILRB2 (human) [5]): binds
B2: J-04 (antibody, human IgG4 S228P, kappa, V domains shown)
VH: QVQLQQSGAELVRPGASVTLSCKASGYTFADYEIHWVKQTPVHGLEWIGAIDPETGGTAYNQKFKGKAILTADKSSSTAYMELRSLTSEDSAVYYCTRYYDYDDAMDYWGQGTSVTVSS
VL: QIVLTQSPAIMSASPGEKVTMTCSASSSVSFMHWYQQKSGTSPKRWIYGTSKLASGVPARFSGSGSGTSYSLTISSMEAEDAATYYCQQWNGNPFTFGSGTKLETKR

binding (human LILRB2 (human) [2]): binds | binding (human LILRB2 (human) [5]): binds | binding [7]: binds | binding [8]: binds
B3: J-19 (antibody, human IgG4 S228P, kappa, V domains shown)
VH: QVTLKESGPGILQPSHTLSLTCSFSGFSLNTYAMGVSWIRQPSGKGLEWLASIWWNGNKYNNPSLKSRLTVSKDTSNNQAFLKVTSVDTADTATYYCAHSRIIRFTDYVMDAWGQGASVTVSS
VL: DIQMTQSPASLSTFLGEPVTIECRASEDIYNDLAWYQQKPGKSPQLLIYNANSLHTGVPSRFSGSGSGTQYSLKINSLQSEDVASYFCQQYYDYPLTFGSGTKLEIKR

binding (human LILRB2 (human) [9]): binds
B4: J-19.h6 (antibody, human IgG4 S228P, kappa, V domains shown)
VH: QITLKESGPTLVKPTQTLTLTCTFSGFSLNTYAMGVSWIRQPPGKALEWLASIWWNGNKYNNPSLKSRLTVTKDTSKNQVVLTMTNMDPVDTATYYCAHSRIIDFTDYVMDAWGQGTLVTVSS
VL: DIQMTQSPSSLSTSVGDRVTITCRASEDIYNDLAWYQQKPGKAPKLLIYNANSLHTGVASRFSGSGSGTDFTFTISSLQPEDVATYFCQQYYDYPLTFGQGTKLEIKR

binding (human LILRB2 (human) [9]): binds
B5: J-19.h7 (antibody, human IgG4 S228P, kappa, V domains shown)
VH: QITLKESGPTLVKPTQTLTLTCTFSGFSLNTYAMGVSWIRQPPGKALEWLASIWWNGNKYNNPSLKSRLTVTKDTSKNQVVLTMTNMDPVDTATYYCAHSRIIEFTDYVMDAWGQGTLVTVSS
VL: DIQMTQSPSSLSTSVGDRVTITCRASEDIYNDLAWYQQKPGKAPKLLIYNANSLHTGVASRFSGSGSGTDFTFTISSLQPEDVATYFCQQYYDYPLTFGQGTKLEIKR

binding [1]: no binding (tested: 25 ug/mL) | binding (human LILRB2 (human) [2]): binds | binding [3]: no binding (tested: 25 ug/mL) | binding [4]: no binding (tested: 25 ug/mL) | binding (human LILRB2 (human) [5]): binds | binding [6]: no binding (tested: 25 ug/mL)
B6: J-17 (antibody, human IgG4 S228P, kappa, V domains shown)
VH: QIQLVQSGPELKKPGETVKISCKASGYTFTTYGLSWVKQTPGKGLKWMGWINTYSGVPTYTDDFKGRFAFSLETSASTAYLQINNLKNEDTATYFCARPYDFDQVGFAYWGQGTLVTVSA
VL: SIVMTQTPKFLLVSAGDRVSITCKASQTVSSDVAWYQQKAGQSPKLLIYYASNRYTGVPDRFTGSGYGTDFTFTISTVQAEDLAVYFCQQDYSSPFTFGGGSKLEIKR

binding (human LILRB2 (human) [2]): binds
B7: J-03 (antibody, human IgG4 S228P, kappa, V domains shown)
VH: QVQLQQSGAELVRPGASVTLSCKASGYKFTDYEMHWVKQTPVHGLEWIGAIDPETNGTAYNKKFKGKAILTADKSSSTAYMELRSLTSEDSAVYYCTRGDYDFSAWFAYWGQGTLVTVSA
VL: DIVLTQSPASLAVSLGQRATISCRASESVDNYDISFMHWYQQKPGQPPKLLIYRASNLESGIPARFSGSGSRTDFTLTINPVETDDVATYYCQQSNKDPRTFGGGTKLEIKR
